The source of these data is paper PMC5406781.

Protein sequences, listed by entry. Tags and fused reporters are not part of them.
UniProt Q1D2S1: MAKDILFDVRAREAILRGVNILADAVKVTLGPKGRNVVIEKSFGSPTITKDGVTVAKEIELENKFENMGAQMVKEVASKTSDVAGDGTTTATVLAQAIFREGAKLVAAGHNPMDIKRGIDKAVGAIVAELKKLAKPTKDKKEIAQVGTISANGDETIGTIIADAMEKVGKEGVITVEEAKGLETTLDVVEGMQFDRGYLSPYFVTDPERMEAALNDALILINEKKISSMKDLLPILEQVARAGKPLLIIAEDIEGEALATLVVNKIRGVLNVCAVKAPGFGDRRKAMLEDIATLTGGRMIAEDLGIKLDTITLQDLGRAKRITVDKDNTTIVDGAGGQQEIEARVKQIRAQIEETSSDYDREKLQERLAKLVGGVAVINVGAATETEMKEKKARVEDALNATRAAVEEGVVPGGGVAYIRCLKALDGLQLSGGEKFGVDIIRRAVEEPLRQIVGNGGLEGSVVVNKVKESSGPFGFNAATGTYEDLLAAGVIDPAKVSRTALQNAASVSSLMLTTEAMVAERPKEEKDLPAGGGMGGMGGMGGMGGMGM
UniProt Q1D3Y5: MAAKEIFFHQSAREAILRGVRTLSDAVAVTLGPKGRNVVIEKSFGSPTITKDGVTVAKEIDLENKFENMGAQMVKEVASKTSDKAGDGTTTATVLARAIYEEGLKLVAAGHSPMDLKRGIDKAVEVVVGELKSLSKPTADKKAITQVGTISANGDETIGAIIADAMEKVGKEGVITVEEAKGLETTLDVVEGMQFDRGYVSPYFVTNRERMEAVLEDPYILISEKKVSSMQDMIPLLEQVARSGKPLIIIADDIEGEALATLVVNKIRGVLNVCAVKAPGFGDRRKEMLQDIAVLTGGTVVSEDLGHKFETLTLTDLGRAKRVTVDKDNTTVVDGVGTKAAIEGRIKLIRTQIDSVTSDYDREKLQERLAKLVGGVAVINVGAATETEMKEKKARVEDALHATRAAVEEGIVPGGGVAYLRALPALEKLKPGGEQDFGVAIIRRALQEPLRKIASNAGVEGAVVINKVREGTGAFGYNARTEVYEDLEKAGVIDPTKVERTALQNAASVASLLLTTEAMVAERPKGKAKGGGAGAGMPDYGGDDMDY

These are yes or no findings as the source states them, for the method shown. Some entries that bind do so weakly or less than the wild type. Tags and fused reporters may be left off the sequences shown.

This assay addresses T1, His-tagged Myxococcus xanthus DK1622 GroES (Myxococcus xanthus DK1622) (UniProt Q1D2S2).
T1 sequence: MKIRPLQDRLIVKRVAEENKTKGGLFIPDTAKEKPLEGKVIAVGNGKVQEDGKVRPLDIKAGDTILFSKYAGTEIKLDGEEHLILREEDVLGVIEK
The experiment in a line: pull-down; GroEL1 or GroEL2 (20 mg, excess) mixed with 1-4 mg His-tagged GroES for 3 h in 25 mM Tris-HCl pH 8.0, 300 mM NaCl, 2 mM dithiothreitol, 2 mM ATP; passed through nickel column, washed three times, eluted with 500 mM imidazole, SDS-PAGE; both purified.

“Myxococcus xanthus DK1622 GroEL1 (from UniProt Q1D2S1 1-549)”: the binding result is “binds”.

Consider “Myxococcus xanthus DK1622 GroEL2 (from UniProt Q1D3Y5 1-547)”, for which the binding entry was “binds”.
